# The exact form of at least one protein or probe is not confirmed. Where cells or extracts were used, other partners may take part.
# Test system: GABP-alpha/GABP-beta (endogenous, L6 myotube nuclear extract)
# Test: pull-down
# Details: 58 and 43 kDa proteins eluted with 2 M KCl, identified by immunoblot; protein in an extract; variant of UtroNBox probe
sequence,measurement,value
ATCTTCCGGAAC (double strand) [UtroNBox coupled to magnetic particles],binding result,binds

# Source: patent publication US20020086017, “GA binding protein and neurite derived growth factors for use in the treatment of muscular dystrophy” (published 2002)
